Values joined by “and” are separate entries in the source; they are usually repeats but may differ in a detail not shown here. Equal entries are not always repeated. Hit rate of the full screen: of about 410,000 compounds, about 18,000 (4.4%) were called active. The inconclusive results got no clear call from the source; some entries with a clear call stand among them for comparison. Rule as the data show it: active = activity change below about -60%; inconclusive = no clear call, values can overlap the other calls; inactive = above about -39%.
test: qHTS Assay for inhibitors of the human cytomegalovirus (HCMV); conditions: HFF cells, HCMV-luciferase reporter, 72 h; at 57.5 µM; stronger effect = lower value
Outline: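 Steps: HFFs plated, 16 h 37C; compounds added; HCMV-luciferase added to MOI 1 PFU/cell; 72 h 37C; OneGlo reagent, 5 min room temperature; luminescence read, normalized to controls.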
% is scaled to controls: 0 for no effect and ±100 for the full control effect.

Structure (SMILES)	activity change, negative = inhibition
C#Cc1ccc(CN2CCC(N3CCC(C(=O)NCc4ccccn4)CC3)CC2)cc1	inconclusive: -40.5%
CCc1c(C)nc2nncn2c1Nc1ccc(Cl)cc1	inconclusive: -42.5%
CCOC(=O)c1cc2c(=O)n3ccccc3nc2n(CCCOC)c1=NC(=O)c1ccncc1	inactive: -13.6%
Cc1ccc(S(=O)(=O)Nc2ccc(NC(=O)Nc3cccc(C(F)(F)F)c3)cc2)cc1	active: -61.6%
CCOC(=O)c1csc(NC(=O)CSc2nnnn2-c2ccc3c(c2)OCCO3)n1	inconclusive: -51.9%
Cc1ccc(/C=C(\NC(=O)c2ccc(C)cc2)c2nc(=S)[nH][nH]2)cc1	inconclusive: -51.8%
Cc1cc(C)n(CC(=O)NNC(=O)CCCOc2ccc(Cl)cc2C)n1	active: -61.2%
NC(=O)C1CCN(c2nc(-c3ccccc3)nc3ccccc23)CC1	inactive: -14.6%
CCN(CC)c1ccc(/C=N\NC(=O)c2cccc3cc[nH]c23)cc1	active: -63.3%
O=C1N=C(N2CCN(Cc3ccccc3)CC2)S/C1=C/c1cccs1	inactive: 40.9%
Cc1ccc2c(c1)C(c1ccccc1)N(C(=O)c1ccc(F)cc1)CC(=O)N2 (stereo not drawn)	inconclusive: -44.7%
Cc1ccccc1C(=O)NC1CCN(CC(=O)Nc2ccc3c(c2)OCCO3)CC1	inconclusive: -54.4%
Cc1ccc(-n2nc3c(c2NC(=O)c2cccs2)CS(=O)(=O)C3)c(C)c1	inconclusive: 0%
N#Cc1c(Oc2ccc3ccccc3c2)sc(C(=O)c2ccccc2)c1N	inconclusive: -59.9%
CC1(C)C2CCC1(C)C(OCCNCCOC(=O)Nc1ccccc1)C2 (stereo not drawn)	inactive: 0%
CCOC(=O)c1sc(NC(=O)CSc2nnnn2-c2ccc(C)cc2C)nc1C	inconclusive: -48.8%
CCC(NC(=O)Nc1ccc(O)cc1)(C(F)(F)F)C(F)(F)F	active: -70%
COc1ccc(NC(=S)Nc2cccnc2)c(OC)c1	inactive: -34.2%
CN(C=O)c1ccc(CSc2ccccc2)cc1	inconclusive: -58.4%
CCc1ccc(NC(=O)CSc2ccc(-c3cccnc3)nn2)cc1	inconclusive: -58.7%
Cc1ccccc1CSCCNC(=O)c1ccc(Cl)c(S(=O)(=O)N2CCOCC2)c1	inactive: -33.1%
N#C/C(=C\c1c(N2CCCCCC2)nc2ccccn2c1=O)C(N)=O	inconclusive: -55.7%

Structure (SMILES)	activity change, negative = inhibition
CN(Cc1ccccc1)c1nc(N)c([N+](=O)[O-])c(NCc2ccccc2)n1	inconclusive: -43%
Cc1ccccc1CSCC(=O)N1CCN(c2ccccc2)CC1	inactive: -29.9%
O=C(Nc1ccccc1N1CCCCC1)c1cccc(OC(F)F)c1	inconclusive: -47.3%
CN1CCN(/N=C/c2ccc(Br)cc2)CC1	inconclusive: -49.6%
Cc1sc2nc(CN3CCOCC3)nc(N3CCN(S(=O)(=O)c4ccccc4)CC3)c2c1C	inconclusive: -50.1%
CC(Sc1ccsc1[N+](=O)[O-])C(=O)NCc1ccccc1 (stereo not drawn)	inconclusive: -54%
COc1cccc(N2CCN(C(=O)C3CCCN(S(=O)(=O)c4ccc5c(c4)oc(=O)n5C)C3)CC2)c1 (stereo not drawn)	inconclusive: -40% and active: -79%
CC1CN(S(=O)(=O)c2cccc(C(=O)Nc3ccccc3N3CCCCC3)c2)CC(C)O1 (stereo not drawn)	inconclusive: -59.1%
Cn1c2ccccc2c2c(C(=O)N3CCN(c4cccc(Cl)c4)CC3)cn(C3CCCCC3)c(=O)c21	inconclusive: -49.9%
CC(=O)c1cc(C#N)c(Oc2ccccc2)nc1C	inconclusive: -55.1%
COc1ccc(S(=O)(=O)Nc2ccccc2C(=O)NCc2cccnc2)cc1	inactive: -6.14%
Cn1c(=O)n(C)c2cc(N3CCOCC3)c(NC(=O)c3ccc(Cl)cc3)cc21	inactive: -3.64%
CCOc1ccc(N(CC(=O)NC2CCCC2)C(=O)CSc2nnc(COc3ccccc3)o2)cc1	inconclusive: -40%
CCN(CC)c1cc(C)c2cc(NC(=O)c3ccccc3Cl)ccc2n1	inconclusive: -51.7%
c1cn(CCCNc2ncnc3sc4c(c23)CCC4)cn1	inconclusive: -43.1%
COc1ccc(CNC(=O)Nc2cccc(C(F)(F)F)c2)cc1OC	inconclusive: -57.6%
O=C(Nc1cccc(OCc2cc(=O)n3ccccc3n2)c1)c1ccccc1Br	inactive: -37%
CCN(CC)CCN(C(=O)/C=C/c1cccs1)c1nc2ccc(Cl)cc2s1	inconclusive: -59.2%
O=C(O)CC/C(=C\c1ccccc1[N+](=O)[O-])c1nc2ccccc2s1	inconclusive: -46%
Cc1ccc(CN2CCNC(=O)C2CC(=O)N(Cc2c(C)nn(C)c2C)C2CC2)o1 (stereo not drawn)	inconclusive: -40.6%
NC(=O)C1C(=O)c2ccccc2C1(C[N+](=O)[O-])c1ccccc1 (stereo not drawn)	active: -101%

Arranged by molecular weight (ascending): some entries from above
Structure (SMILES)	activity change, negative = inhibition
Cc1ccccc1CSCC(=O)N1CCN(c2ccccc2)CC1	inactive: -29.9%
O=C(O)CC/C(=C\c1ccccc1[N+](=O)[O-])c1nc2ccccc2s1	inconclusive: -46%
Cc1ccc(CN2CCNC(=O)C2CC(=O)N(Cc2c(C)nn(C)c2C)C2CC2)o1 (stereo not drawn)	inconclusive: -40.6%
CC1CN(S(=O)(=O)c2cccc(C(=O)Nc3ccccc3N3CCCCC3)c2)CC(C)O1 (stereo not drawn)	inconclusive: -59.1%
